According to PubChem BioAssay (NCATS):
The shares of active, inactive and inconclusive entries below differ from those in the screen. A potency beside an inconclusive call is a rough fit, not a confirmed value. Active and inactive are the calls of the source. The call rests on the fitted dose curve; in most records, active means well fitted cell-killing curve with a large enough effect; inconclusive means small, poorly fitted or top-dose-only effect, or effect the other way; inactive means no such curve, though single readings can be large or run the other way.

Assay: Quantitative High-Throughput drug screen in 47 multiple myeloma cell lines against the NCATS MIPE library collection: INA6_PLB cell viability assay (AID 1918965; further: nearly all actives have a fitted effect of over 55% in size)
Conditions: INA6 myeloma viability, CellTiter-Glo ATP luminescence, 48 h; viability (% of control): at 45.8 µM (top of the series) unless noted
Excerpt: PI: Beverly A. Mock Ph.D.
Laboratory of Cancer Biology and Genetics,
Center for Cancer Research, National Cancer Institute,
National Institute of Health, Bethesda, Maryland
Drug resistance and disease progression are common in multiple myeloma (MM) patients, underscoring the need for new therapeutic combinations. […] We hypothesized that effective combinations would reduce MYC expression and enhance p16 activity. […] These preclinical data identify potentially useful drug combinations for evaluation in drug-resistant MM and reveal potential mechanisms of combined drug sensitivity.
Described herein is the primary MIPE qHTS used to cherrypick compounds. Validated compounds were then further tested for potential synergistic activiy.
[1] Peat TJ, Gaikwad SM, Dubois W, Gyabaah-Kessie N, Zhang S, Gorjifard S, Phyo Z, Andres M, Hughitt VK, Simpson RM, Miller MA, Girvin AT, Taylor A, Williams D, D'Antonio N, Zhang Y, Rajagopalan A, Flietner E, Wilson K, Zhang X, Shinn P, Klumpp-Thomas C, McKnight C, Itkin Z, Chen L, Kazandijian D, Zhang J, Michalowski AM, Simmons JK, Keats J, Thomas CJ, Mock BA. Drug combinations identified by high-throughput screening promote cell cycle transition and upregulate Smad pathways in myeloma. Cancer Lett. 2023 Aug 1;568:216284. doi: 10.1016/j.canlet.2023.216284. Epub 2023 Jun 24. PMID: 37356470; PMCID: PMC10408729.
SEQUENCE No. (e.g., 1, 2, 3, etc.); […] (e.g., Cells, Incubation, Reagent, etc.); VALUE and DESCRIPTION.
1; Cells; 5 uL; white, solid bottom 1536-well Greiner assay plate.
2; Compounds; 23 nL; Kalypsis pin tool (Wako USA) equipped with a 1536-well pin head to transfer to the assay plates.
3; Incubation; 48 hours; 37C incubation.
4; Reagent;5uL; CellTiter Glo (Promega).
5; Detector; 425V; Luminescence; Viewlux PerkinElmer.
NOTES (numbers refer to Sequence numbers above)
1. The cell-based screening methods employed in this study were like those previously published. Briefly, the corresponding myeloma cell lines were screened in 1,536-well plates with 500 cells, 5-uL per well for inhibition of cell viability (assessed by measuring ATP levels with CellTiterGlo).
2. NCATS MIPE 4.0 library of approved and investigational drugs were added using the Kalypsis pin tool. Wells treated with DMSO only for 100% viability and media only wells for 0% viability were used as controls.
3. The assay plates were covered and incubated for 48 hours in a 37C, 5% CO2 incubator with controlled humidity.
4. After 48 hours, CellTilter-GloTM luminescent substrate mix (Promega) reagent was added to the assay plate and plates we incubated for 5 min at room temperature.
5. Signal was measured as median relative luminescence units on a ViewLux (PerkinElmer) multiplate reader.
[1] Heske CM, Davis MI, Baumgart JT, Wilson K, Gormally MV, Chen L, Zhang X, Ceribelli M, Duveau DY, Guha R, Ferrer M, Arnaldez FI, Ji J, Tran HL, Zhang Y, Mendoza A, Helman LJ, Thomas CJ. Matrix Screen Identifies Synergistic Combination of PARP Inhibitors and Nicotinamide Phosphoribosyltransferase (NAMPT) Inhibitors in Ewing Sarcoma. Clin Cancer Res. 2017 Dec 1;23(23):7301-7311. doi: 10.1158/1078-0432.CCR-17-1121. Epub 2017 Sep 12. PMID: 28899971; PMCID: PMC6636827.
Potency means the concentration at half of the fitted maximal effect.

Row | Structure (SMILES) | Potency | viability (% of control)
1 | CN(C)CCCN1c2ccccc2CCc2ccc(Cl)cc21 | inconclusive: 3.32 µM [cytotoxic, full curve, poor fit] | 
2 | CC(C)C[C@H](NC(=O)c1cc2ccccc2s1)C(=O)N1CCN(C(=O)[C@H](CO)NS(=O)(=O)c2ccc(Cl)cc2Cl)CC1 | inconclusive: 33.2 µM [cytotoxic, single point] | 
3 | CS(=O)(=O)Nc1ccc([N+](=O)[O-])cc1Oc1ccccc1 | inconclusive: 20.9 µM [cytotoxic, partial curve, poor fit] | 
4 | N#CC(=C(N)Sc1ccc(N)cc1)c1ccccc1C(F)(F)F | active: 8.33 µM | 
5 | CC(C)(O)CCc1ccc(OCc2cc(-c3cccc(OC(F)F)c3)c3ncccc3c2)cc1 | inconclusive: 18.7 µM [cytotoxic, partial curve, poor fit] | 
6 | COc1c2occc2cc2ccc(=O)oc12 | inconclusive: 11.8 µM [cytotoxic, full curve, poor fit] | 
7 | CC(C)NC[C@@H](C(=O)N1CCN(c2ncnc3c2[C@H](C)C[C@H]3O)CC1)c1ccc(Cl)cc1 | active: 4.18 µM | 
8 | CC(C)(Oc1ccc(C2CC2(Cl)Cl)cc1)C(=O)O (stereo not given) | inconclusive: 17.1 µM [rising, full curve, poor fit] | 
9 | C=C1C(=CC=C2CCCC3(C)[C@@H]([C@H](C)C=CC=CC(O)(CC)CC)CC[C@@H]23)C[C@@H](O)C[C@@H]1O (stereo not given in full) | inconclusive: 18.7 µM [cytotoxic, partial curve, poor fit] | 
10 | CN(C)CCC=C1c2ccccc2C=Cc2ccccc21 | inconclusive: 18.7 µM [cytotoxic, partial curve, poor fit] | 
11 | COc1nc(C)cnc1NS(=O)(=O)c1cccnc1-c1ccc(-c2nnco2)cc1 |  | inactive: 182%
12 | COc1cc(Nc2c(C#N)cnc3cc(OCCCN4CCN(C)CC4)c(OC)cc23)c(Cl)cc1Cl | active: 0.418 µM | 
13 | CCCc1nc(C(C)(C)O)c(C(=O)O)n1Cc1ccc(-c2ccccc2-c2nn[nH]n2)cc1 | inconclusive: 29.6 µM [cytotoxic, partial curve, poor fit] | 
14 | CN1c2ccccc2C(=O)N2CCc3c([nH]c4ccccc34)C21 (stereo not given) | inconclusive: 33.2 µM [cytotoxic, single point] | 
15 | COc1cc(N2CCN(C)CC2)ccc1Nc1nc(N)c(C(=O)c2c(Cl)cccc2Cl)s1 | inconclusive: 0.0235 µM [rising, full curve, poor fit] | 
16 | O=C1[C@H](Cc2ccc(O)cc2)N2C(=O)CCN(C(=O)NCc3ccccc3)[C@H]2CN1Cc1cccc2ccccc12 | inconclusive: 2.35 µM [cytotoxic, full curve, poor fit] | 
17 | CCC1(C)CC(=O)NC1=O (stereo not given) |  | inactive: 170%
18 | O=C1c2cccc(O)c2C(=O)c2c(O)cc(CO)cc21 | inconclusive: 2.96 µM [cytotoxic, full curve, poor fit] | 
19 | O=C(O)CCc1ccc(NCc2cccc(Oc3ccccc3)c2)cc1 |  | inactive: 106%
20 | CCOC(=O)N1c2ccc(C(F)(F)F)cc2[C@@H](N(Cc2cc(C(F)(F)F)cc(C(F)(F)F)c2)C(=O)OC)C[C@H]1CC | inconclusive: 16.6 µM [cytotoxic, partial curve] | 

Row | Structure (SMILES) | Potency | viability (% of control)
21 | COc1ccc2c(c1)c(CC(=O)OCC(=O)O)c(C)n2C(=O)c1ccc(Cl)cc1 |  | inactive: 157%
22 | c1ccc(CNc2nc(N3CCOc4ccccc43)nc3c2CCCC3)cc1 | inconclusive: 18.7 µM [cytotoxic, partial curve, poor fit] | 
23 | Cc1ccc(NC(=O)c2ccc(CN3CCN(C)CC3)cc2)cc1Nc1nc(-c2cccnc2)cs1 | active: 5.26 µM | 
24 | COc1ccc2c(OCc3nnc4ccc(-c5ccccc5)nn34)ccnc2c1 | inconclusive: 0.0083 µM [cytotoxic, full curve, poor fit] | 
25 | O=c1[nH]c(-c2ccc(C(F)(F)F)cc2)nc2c1CSCC2 | inconclusive: 37.2 µM [cytotoxic, single point] | 
26 | Cc1oc(=O)oc1CN1CCN(c2cc3c(cc2F)c(=O)c(C(=O)O)c2n3C(C)S2)CC1 (stereo not given) | inconclusive: 20.9 µM [cytotoxic, single point] | 
27 | O=S(=O)(NCCNCC=Cc1ccc(Br)cc1)c1cccc2cnccc12 | active: 7.43 µM | 
28 | C[C@@H](O)[C@H]1C(=O)N2C(C(=O)OCOC(=O)C(C)(C)C)=C(SC3CN(C4=NCCS4)C3)[C@H](C)[C@H]12 | inconclusive: 3.72 µM [cytotoxic, partial curve, poor fit] | 
29 | CC1=NN(c2ccccc2)C(=O)C1 | active: 13.2 µM | 
30 | Cc1cc(OCCCS(C)(=O)=O)cc(C)c1-c1cccc(COc2ccc3c(c2)OC[C@H]3CC(=O)O)c1 | inconclusive: 20.9 µM [cytotoxic, partial curve, poor fit] | 
31 | COc1cc2c(c(OC)c1OC)-c1ccc(OC)c(=O)cc1[C@@H](NC(C)=O)CC2 |  | inactive: 5.99%
32 | CC1=C(C(=O)O)N2C(=O)[C@@H](NC(=O)C(N)c3ccccc3)[C@H]2SC1 (stereo not given in full) | inconclusive: 0.001 µM [cytotoxic] | 
33 | CC(C)C[C@H](NC(=O)[C@@H](NC(=O)c1cccc(-c2ccccc2)n1)[C@@H](C)O)B(O)O | active: 0.001 µM | 
34 | CCOC(=O)c1ccc(C#Cc2ccc3c(c2)C(C)(C)CCS3)nc1 |  | inactive: 121%
35 | CCN1CCN(c2ccc(Nc3cc(N(C)C(=O)Nc4c(Cl)c(OC)cc(OC)c4Cl)ncn3)cc2)CC1 | inconclusive: 18.7 µM [cytotoxic, partial curve, poor fit] | 
36 | O=P(O)(O)C(O)(Cc1cccnc1)P(=O)(O)O | inconclusive: 11.8 µM [cytotoxic, single point] | 
37 | Oc1ccc(C2CNCCc3c2cc(O)c(O)c3Cl)cc1 (stereo not given) | inconclusive: 23.5 µM [cytotoxic, single point] | 
38 | N#CC[C@H](C1CCCC1)n1cc(-c2ncnc3[nH]ccc23)cn1 | active: 0.372 µM | 
39 | COC1=C2C[C@@H](C)C[C@H](OC)[C@@H](O)[C@@H](C)C=C(C)[C@H](OC(N)=O)[C@@H](OC)C=CC=C(C)C(=O)NC(=CC1=O)C2=O | active: 0.148 µM | 
40 | Cc1ccc(-c2ncn(-c3ccc(Nc4nccc(-c5cccc(N6CCOCC6)c5)n4)cc3)n2)cn1 | active: 0.0662 µM | 

Copied from the list.
For Potency, Cc1ccc(-c2ncn(-c3ccc(Nc4nccc(-c5cccc(N6CCOCC6)c5)n4)cc3)n2)cn1 is listed with active: 0.0662 µM
For Potency, Oc1ccc(C2CNCCc3c2cc(O)c(O)c3Cl)cc1 (stereo not given) is listed with inconclusive: 23.5 µM [cytotoxic, single point]
For Potency, O=P(O)(O)C(O)(Cc1cccnc1)P(=O)(O)O is listed with inconclusive: 11.8 µM [cytotoxic, single point]
